PubChem BioAssay AID1259405 | NCATS | 2018

- Assay: 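Mouse-designed siRNAs used to find CHO productivity engineering targets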 (primary screen)
- Cells: Chinese hamster CHO-K1 ovary cells with stable secreted eGFP expression
- Knock-down reagent: single siRNA against mouse genes, 0.8 pmol siRNA per well (2 µl of 400 nM stock)
- Timing: 3 days
- Detection: 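Per-well intracellular GFP measured by laser scanning cytometry, plus viability from ATP luminescence, each relative to plate median of non-targeting control wells, in %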
- Scale: GFP, % of control: higher = more GFP per well, higher productivity; viability (ATP), % of control: higher = more viable cells (more ATP)
- Hit rule: 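Called active when intracellular GFP, relative to negative control, is at or above 120%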
The whole screen tested about 50,000 reagents; shown is a random part of them. Over the whole deposit, about 4,000 (8%) were called active. 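Mouse siRNA library applied to hamster cells; one well for each siRNA.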 A number with no mark means an inactive call. Reagents against one gene are numbered here.

| Gene | reagent no. | GFP, % of control | viability (ATP), % of control |
| --- | --- | --- | --- |
| Atl2 | 1 | 61.6 | 58.2 |
| Atl2 | 2 | 51.6 | 65.2 |
| Atl2 | 3 | 53.9 | 40.6 |
| Comtd1 | 1 | 91.4 | 100 |
| Comtd1 | 2 | 137 (active) | 164 |
| Comtd1 | 3 | 102 | 103 |
| Asl | 1 | 131 (active) | 95.5 |
| Asl | 2 | 76 | 87.7 |
| Asl | 3 | 102 | 55.1 |
| Cspg5 | 1 | 79.2 | 59.8 |
| Cspg5 | 2 | 118 | 74.2 |
| Cspg5 | 3 | 68.4 | 88.6 |
| Tmem158 | 1 | 119 | 71.2 |
| Tmem158 | 2 | 40.1 | 44.7 |
| Tmem158 | 3 | 77.1 | 102 |
| Or52e8b | 1 | 60.3 | 63.3 |
| Or52e8b | 2 | 115 | 85.7 |
| Or52e8b | 3 | 63.7 | 111 |
| Or7g31 | 1 | 79.9 | 75.5 |
| Or7g31 | 2 | 62.6 | 37.7 |
| Or7g31 | 3 | 52.2 | 47.7 |
| Zbtb18 | 1 | 92.6 | 45.2 |
| Zbtb18 | 2 | 105 | 77.2 |
| Zbtb18 | 3 | 48.6 | 84.7 |
| Cmpk1 | 1 | 87.1 | 70.2 |
| Slc12a9 | 1 | 107 | 124 |
| Slc12a9 | 2 | 48.8 | 58.6 |
| Slc12a9 | 3 | 66.3 | 52 |
| Desi2 | 1 | 69.6 | 61.2 |
| Desi2 | 2 | 102 | 92.6 |
| Desi2 | 3 | 108 | 104 |
| Mbl2 | 1 | 61.4 | 83.5 |
| Mbl2 | 2 | 83.7 | 91.7 |
| Mbl2 | 3 | 55.8 | 60.8 |
| Zfp709 | 1 | 53.8 | 68.8 |
| Zfp709 | 2 | 55 | 54.2 |
| Triobp | 1 | 130 (active) | 77.5 |
| Triobp | 2 | 106 | 66 |
| Triobp | 3 | 99.9 | 73.1 |
| Tssc4 | 1 | 123 (active) | 102 |
| Tssc4 | 2 | 121 (active) | 109 |
| Tssc4 | 3 | 84.3 | 84.9 |
| Ssu72 | 1 | 75.7 | 80.5 |
| Ssu72 | 2 | 74.4 | 70.4 |
| Tbc1d12 | 1 | 116 | 105 |
| Tbc1d12 | 2 | 75.8 | 61.2 |
| Tbc1d12 | 3 | 66 | 47.6 |
| Mettl14 | 1 | 46.6 | 56.7 |
| Mettl14 | 2 | 56.7 | 79.4 |
| Mettl14 | 3 | 120 (active) | 90.5 |
| Sh3bgrl3 | 1 | 112 | 111 |
| Sh3bgrl3 | 2 | 66.9 | 76.1 |
| Sh3bgrl3 | 3 | 84 | 75.8 |
| Slc35a4 | 1 | 156 (active) | 57.7 |
| Slc35a4 | 2 | 145 (active) | 79 |
| Slc35a4 | 3 | 77.8 | 88.5 |
| Trappc4 | 1 | 127 (active) | 120 |
| Trappc4 | 2 | 78.2 | 84 |
| Lrba | 1 | 55.3 | 50.5 |
| Lrba | 2 | 71.8 | 85.3 |
| Lrba | 3 | 102 | 67.3 |
| H1f1 | 1 | 84.5 | 84.2 |
| H1f1 | 2 | 106 | 85.9 |
| H1f1 | 3 | 56.4 | 73.4 |
| Sh3tc2 | 1 | 86.9 | 76.1 |
| Sh3tc2 | 2 | 138 (active) | 103 |
| Sh3tc2 | 3 | 44.4 | 40.6 |
| Fut1 | 1 | 131 (active) | 97.2 |
| Fut1 | 2 | 54 | 40.3 |
| Fut1 | 3 | 85.5 | 97.4 |
| Gng3 | 1 | 82.5 | 71 |
| Gng3 | 2 | 117 | 81.2 |
| Gng3 | 3 | 71.9 | 68.9 |
| Rusc2 | 1 | 45.8 | 40 |
| Rusc2 | 2 | 146 (active) | 53.2 |
| Rusc2 | 3 | 74 | 78.6 |
| Zc2hc1a | 1 | 23.4 | 24.4 |
| Zc2hc1a | 2 | 86.4 | 76.7 |
| Zc2hc1a | 3 | 83.1 | 105 |
| Eif3h | 1 | 54.1 | 70.3 |
| Eif3h | 2 | 37.5 | 59.5 |
| Eif3h | 3 | 82.2 | 91.6 |
| Ttc23 | 1 | 110 | 108 |
| Ttc23 | 2 | 94.4 | 87 |
| Ttc23 | 3 | 93.6 | 96.4 |
| Vmn1r216 | 1 | 79.8 | 66.3 |
| Vmn1r216 | 2 | 59.4 | 50.8 |
| Vmn1r216 | 3 | 75.1 | 75 |
| Ppef2 | 1 | 77.1 | 81.3 |
| Ppef2 | 2 | 73.7 | 70.5 |
| Ppef2 | 3 | 63.8 | 94.6 |
| Il2ra | 1 | 78.8 | 72.7 |
| Il2ra | 2 | 103 | 86.4 |
| Il2ra | 3 | 67.8 | 48.6 |
| Clptm1l | 1 | 73.4 | 62.5 |
| Clptm1l | 2 | 97.2 | 89.5 |
| Clptm1l | 3 | 73.1 | 81.6 |
| Dis3 | 1 | 75.1 | 43 |
| Dis3 | 2 | 68.5 | 64.5 |
| Dis3 | 3 | 91.3 | 60.9 |
| Mtfmt | 1 | 43.9 | 73.9 |
| Mtfmt | 2 | 60.1 | 54.8 |
| Mtfmt | 3 | 91.9 | 90 |
| Rgs1 | 1 | 125 (active) | 116 |
| Rgs1 | 2 | 99.9 | 107 |
| Rgs1 | 3 | 39.2 | 48.2 |
| Magea13 | 1 | 40.9 | 46.2 |
| Magea13 | 2 | 55.4 | 75.3 |
| Magea13 | 3 | 58.1 | 68 |

14 of these entries, set out differently.
Gene	reagent no.	GFP, % of control	viability (ATP), % of control
Zbtb18	3	48.6	84.7
Cmpk1	1	87.1	70.2
Slc12a9	1	107	124
Slc12a9	2	48.8	58.6
Slc12a9	3	66.3	52
Desi2	1	69.6	61.2
Desi2	2	102	92.6
Desi2	3	108	104
Mbl2	1	61.4	83.5
Mbl2	2	83.7	91.7
Mbl2	3	55.8	60.8
Zfp709	1	53.8	68.8
Zfp709	2	55	54.2
Triobp	1	130 (active)	77.5
